The list shows only some results of the screen, not a fair sample: it gathers tests that were run many times, whatever their T/C, doses with no T/C, and many T/C values between a quarter and a half above the control. Further doses and runs are listed elsewhere. T/C gives the treated animals as a percentage of the vehicle group. Some entries give survivors of the animals treated and no T/C: the source holds a T/C of zero for them, seemingly a mark for toxic or unscored doses. Some survivor counts are full or nearly so, which does not show that the dose was tolerated: survival well below the control is almost never listed, so the zero probably covers shortened survival too. Survivors were counted at the toxicity check, usually on the fifth day, unless a day is given; later deaths do not show. Schedules are NCI's codes, read here as Q, the interval in days (D) or hours (H), X, the number of doses. Some doses were run more than once; the values are given in rising order. Some schedule codes hold Z or #, which are not explained here. For survival time, this PubChem deposit counts one and a half times the control or more as active, and values a quarter to a half above the control carry no call in these data; other NCI protocols may use other cut-offs. Signs of the kind (2×) give the number of equal values in this list. Some T/C values are followed by the survivors on the day toxicity was checked, most often the fifth; where none is given, no animal had died by that day.
System: L1210 leukemia ip in BDF1 mice, survival T/C
Experiment: NCI In Vivo Anticancer Drug Screen. Data for tumor model L1210 Leukemia (intraperitoneal) in B6D2F1 (BDF1) mice
Conditions: higher T/C = longer survival
[1] = T/C endpoint: mean survival time, dose: 6.0 mg/kg/injection, schedule: Q08HX027 (ip), vehicle: acetone
[2] = T/C endpoint: mean survival time, dose: 10.0 mg/kg/injection, schedule: Q12HX018 (ip), vehicle: acetone
[3] = T/C endpoint: mean survival time, dose: 80.0 mg/kg/injection, schedule: Q01DX001 (ip), vehicle: carboxymethylcellulose (CMC)
[4] = T/C endpoint: mean survival time, dose: 0.5 mg/kg/injection, schedule: Q01DX015 (ip), vehicle: saline
[5] = T/C endpoint: mean survival time, dose: 4.0 mg/kg/injection, schedule: Q01DX015 (ip), vehicle: saline
[6] = T/C endpoint: mean survival time, dose: 10.0 mg/kg/injection, schedule: Q01DX001 (ip), vehicle: saline
[7] = T/C endpoint: mean survival time, dose: 100.0 mg/kg/injection, schedule: Q01DX001 (ip), vehicle: saline
[8] = T/C endpoint: mean survival time, dose: 200.0 mg/kg/injection, schedule: Q01DX001 (ip), vehicle: saline
[9] = T/C endpoint: mean survival time, dose: 400.0 mg/kg/injection, schedule: Q01DX001 (ip), vehicle: saline

SMILES: O=C(O)CCCc1ccc(N(CCCl)CCCl)cc1
- T/C (T/C endpoint: mean survival time, dose: 2.0 mg/kg/injection, schedule: Q08HX027 (ip), vehicle: acetone): 131 % of control
- T/C (T/C endpoint: mean survival time, dose: 3.0 mg/kg/injection, schedule: Q08HX027 (ip), vehicle: acetone): 134 and 145 % of control
- T/C (T/C endpoint: mean survival time, dose: 4.0 mg/kg/injection, schedule: Q12HX018 (ip), vehicle: acetone): 136 and 137 % of control
- T/C (T/C endpoint: mean survival time, dose: 5.0 mg/kg/injection, schedule: Q08HX027 (ip), vehicle: acetone): 148 % of control
- T/C [1]: 149 % of control
- survivor count [1]: 6 of 6
- T/C (T/C endpoint: mean survival time, dose: 6.0 mg/kg/injection, schedule: Q12HX018 (ip), vehicle: acetone): 134 and 146 % of control
- T/C (T/C endpoint: mean survival time, dose: 8.0 mg/kg/injection, schedule: Q01DX009 (ip), vehicle: acetone): 149 % of control (2×)
- T/C (T/C endpoint: mean survival time, dose: 8.0 mg/kg/injection, schedule: Q12HX018 (ip), vehicle: acetone): 130 and 146 % of control
- T/C (T/C endpoint: mean survival time, dose: 8.0 mg/kg/injection, schedule: Q12HX018 (ip), vehicle: other): 137 and 138 % of control
- T/C (T/C endpoint: mean survival time, dose: 10.0 mg/kg/injection, schedule: Q12HX018 (ip), vehicle: Klucel (hydroxypropylcellulose) (HPC)): 129 % of control
- T/C [2]: 134 % of control
- survivor count [2]: 5 of 6
- T/C (T/C endpoint: mean survival time, dose: 10.0 mg/kg/injection, schedule: Q12HX018 (ip), vehicle: saline with Tween-80): 135 % of control
- T/C (T/C endpoint: mean survival time, dose: 12.0 mg/kg/injection, schedule: Q01DX009 (ip), vehicle: acetone): 138 % of control
- T/C (T/C endpoint: mean survival time, dose: 14.5 mg/kg/injection, schedule: Q01DX Z (ip), vehicle: carboxymethylcellulose (CMC)): 131 % of control
- T/C (T/C endpoint: mean survival time, dose: 16.0 mg/kg/injection, schedule: Q01DX009 (ip), vehicle: saline with Tween-80): 129 % of control
- survivor count (T/C endpoint: mean survival time, dose: 20.0 mg/kg/injection, schedule: Q01DX009 (ip), vehicle: acetone): 2 of 6
- survivor count (T/C endpoint: mean survival time, dose: 50.0 mg/kg/injection, schedule: Q01DX Z (ip), vehicle: carboxymethylcellulose (CMC)): 0 of 6
- survivor count [3]: 0 of 6
- survivor count (T/C endpoint: mean survival time, dose: 160.0 mg/kg/injection, schedule: Q01DX001 (ip), vehicle: carboxymethylcellulose (CMC)): 0 of 6
- survivor count (T/C endpoint: mean survival time, dose: 320.0 mg/kg/injection, schedule: Q01DX001 (ip), vehicle: carboxymethylcellulose (CMC)): 0 of 6
- survivor count (T/C endpoint: median survival time, dose: 24.0 mg/kg/injection, schedule: Q01DX009 (ip), vehicle: saline): 5 of 8

SMILES: CS(=O)(=O)OCCN(CCOS(C)(=O)=O)c1ccc(N=O)c(Cl)c1
- T/C (T/C endpoint: mean survival time, dose: 0.33 mg/kg/injection, schedule: Q01DX001 (ip), vehicle: saline): 126 % of control
- T/C (T/C endpoint: mean survival time, dose: 0.38 mg/kg/injection, schedule: Q01DX015 (ip), vehicle: saline): 131 % of control
- T/C (T/C endpoint: mean survival time, dose: 0.5 mg/kg/injection, schedule: Q01DX001 (ip), vehicle: saline): 138 % of control
- T/C [4]: 128 % of control
- T/C (T/C endpoint: mean survival time, dose: 0.75 mg/kg/injection, schedule: Q01DX001 (ip), vehicle: saline): 132 % of control
- T/C (T/C endpoint: mean survival time, dose: 1.0 mg/kg/injection, schedule: Q01DX001 (ip), vehicle: saline): 127 % of control
- T/C (T/C endpoint: mean survival time, dose: 2.0 mg/kg/injection, schedule: Q01DX001 (ip), vehicle: saline): 127 % of control
- survivor count [5]: 6 of 6
- survivor count (T/C endpoint: mean survival time, dose: 4.5 mg/kg/injection, schedule: Q01DX001 (ip), vehicle: saline): 6 of 6
- survivor count (T/C endpoint: mean survival time, dose: 6.7 mg/kg/injection, schedule: Q01DX001 (ip), vehicle: saline): 0 of 6 and 1 of 6
- survivor count (T/C endpoint: mean survival time, dose: 8.0 mg/kg/injection, schedule: Q01DX001 (ip), vehicle: saline): 0 of 4
- T/C [6]: 127 % of control
- survivor count [6]: 0 of 6
- survivor count (T/C endpoint: mean survival time, dose: 15.0 mg/kg/injection, schedule: Q01DX001 (ip), vehicle: saline): 0 of 6 and 1 of 6
- survivor count (T/C endpoint: mean survival time, dose: 20.0 mg/kg/injection, schedule: Q01DX001 (ip), vehicle: saline): 0 of 4
- survivor count (T/C endpoint: mean survival time, dose: 40.0 mg/kg/injection, schedule: Q01DX001 (ip), vehicle: saline): 0 of 4
- survivor count (T/C endpoint: mean survival time, dose: 50.0 mg/kg/injection, schedule: Q01DX001 (ip), vehicle: saline): 0 of 6
- survivor count (T/C endpoint: mean survival time, dose: 80.0 mg/kg/injection, schedule: Q01DX001 (ip), vehicle: saline): 0 of 4
- survivor count [7]: 0 of 6
- survivor count [8]: 0 of 6
- survivor count [9]: 0 of 6

SMILES: c1cc[c]([Sn]([c]2ccccc2)([c]2ccccc2)[n]2cncn2)cc1
- survivor count (T/C endpoint: mean survival time, dose: 100.0 mg/kg/injection, schedule: Q04DX002 (ip), vehicle: saline with Tween-80): 0 of 3
- survivor count (T/C endpoint: mean survival time, dose: 200.0 mg/kg/injection, schedule: Q04DX002 (ip), vehicle: saline with Tween-80): 0 of 3
- survivor count (T/C endpoint: mean survival time, dose: 400.0 mg/kg/injection, schedule: Q04DX002 (ip), vehicle: saline with Tween-80): 0 of 3

SMILES: CC(=O)N(C)c1ccc(NC(=O)Nc2cccc(F)c2)cc1
- survivor count (T/C endpoint: mean survival time, dose: 100.0 mg/kg/injection, schedule: Q01DX009 (ip), vehicle: saline with Tween-80): 6 of 6
- survivor count (T/C endpoint: mean survival time, dose: 200.0 mg/kg/injection, schedule: Q01DX009 (ip), vehicle: saline with Tween-80): 5 of 5
- survivor count (T/C endpoint: mean survival time, dose: 400.0 mg/kg/injection, schedule: Q01DX009 (ip), vehicle: saline with Tween-80): 6 of 6

SMILES: CC[N+]1(CC)CCC(OC(=O)C(O)(c2ccccc2)c2ccccc2)C1 (stereo unspecified)
- survivor count [7]: 2 of 4
- survivor count [8]: 0 of 4
- survivor count [9]: 0 of 4

SMILES: Cc1n(CC(C)C)c2c([n+]1C)C(=O)c1ccccc1C2=O
- survivor count [4]: 3 of 6
- survivor count (T/C endpoint: mean survival time, dose: 2.0 mg/kg/injection, schedule: Q01DX015 (ip), vehicle: saline): 4 of 6
- survivor count [5]: 0 of 6
- survivor count (T/C endpoint: mean survival time, dose: 4.0 mg/kg/injection, schedule: Q04DX003 (ip), vehicle: saline): 5 of 6
- survivor count (T/C endpoint: mean survival time, dose: 5.0 mg/kg/injection, schedule: Q01DX001 (ip), vehicle: carboxymethylcellulose (CMC)): 0 of 4
- survivor count (T/C endpoint: mean survival time, dose: 8.0 mg/kg/injection, schedule: Q01DX015 (ip), vehicle: saline): 0 of 6
- survivor count (T/C endpoint: mean survival time, dose: 8.0 mg/kg/injection, schedule: Q04DX003 (ip), vehicle: saline): 0 of 6
- survivor count (T/C endpoint: mean survival time, dose: 10.0 mg/kg/injection, schedule: Q01DX001 (ip), vehicle: carboxymethylcellulose (CMC)): 0 of 4
- survivor count (T/C endpoint: mean survival time, dose: 16.0 mg/kg/injection, schedule: Q04DX003 (ip), vehicle: saline): 0 of 6
- survivor count (T/C endpoint: mean survival time, dose: 20.0 mg/kg/injection, schedule: Q01DX001 (ip), vehicle: carboxymethylcellulose (CMC)): 0 of 4
- survivor count (T/C endpoint: mean survival time, dose: 40.0 mg/kg/injection, schedule: Q01DX001 (ip), vehicle: carboxymethylcellulose (CMC)): 0 of 4
- survivor count (T/C endpoint: mean survival time, dose: 50.0 mg/kg/injection, schedule: Q01DX001 (ip), vehicle: carboxymethylcellulose (CMC)): 0 of 4
- survivor count [3]: 0 of 4
- survivor count (T/C endpoint: mean survival time, dose: 100.0 mg/kg/injection, schedule: Q01DX001 (ip), vehicle: carboxymethylcellulose (CMC)): 0 of 4
- survivor count (T/C endpoint: mean survival time, dose: 200.0 mg/kg/injection, schedule: Q01DX001 (ip), vehicle: carboxymethylcellulose (CMC)): 0 of 4
- survivor count (T/C endpoint: mean survival time, dose: 400.0 mg/kg/injection, schedule: Q01DX001 (ip), vehicle: carboxymethylcellulose (CMC)): 0 of 4

SMILES: O=C(O)c1cccc2c1C(=O)c1cc([N+](=O)[O-])ccc1-2
- survivor count (T/C endpoint: mean survival time, dose: 300.0 mg/kg/injection, schedule: Q01DX001 (ip), vehicle: carboxymethylcellulose (CMC)): 0 of 6

SMILES: NC(=S)c1c(N)n(C2OC(CO)C(O)C2O)c2ncnc(N)c12 (stereo unspecified)
- T/C (T/C endpoint: mean survival time, dose: 25.0 mg/kg/injection, schedule: Q01DX005 (ip), vehicle: saline): 137 % of control [4 of 6 alive]
- survivor count (T/C endpoint: mean survival time, dose: 50.0 mg/kg/injection, schedule: Q01DX005 (ip), vehicle: saline): 0 of 6
- survivor count (T/C endpoint: mean survival time, dose: 100.0 mg/kg/injection, schedule: Q01DX005 (ip), vehicle: saline): 0 of 6
- survivor count (T/C endpoint: mean survival time, dose: 200.0 mg/kg/injection, schedule: Q01DX005 (ip), vehicle: saline): 0 of 6

SMILES: Clc1ccc(CN2CCCN(C3CCCCC3)C2C2CCC=CO2)cc1 (stereo unspecified)
- survivor count [8]: 2 of 6
- survivor count [9]: 1 of 6
